Laboratory results published in article PMC7293033.
These are yes or no findings as the source states them, for the method shown. Binding calls can cover weak binding; strength is not graded here. For some assays here: Binding seen in cells or lysates may run through a third protein.

By UniProt entry, the sequences of proteins in these tests, tags left out. Where a name states a change or a piece, a line headed by the entry shows the natural chain unless it says otherwise. Chains listed by the source or under a name are the forms on record and can include a tag or linker. Residues count along the entry.
UniProt P06730: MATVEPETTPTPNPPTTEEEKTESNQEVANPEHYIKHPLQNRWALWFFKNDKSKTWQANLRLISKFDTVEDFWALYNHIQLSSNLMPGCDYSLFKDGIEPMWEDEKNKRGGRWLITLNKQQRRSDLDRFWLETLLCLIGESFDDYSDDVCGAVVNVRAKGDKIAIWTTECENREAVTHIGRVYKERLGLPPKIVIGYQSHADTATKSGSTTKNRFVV
HA-tagged LMW FGF2 WT (P09038, residues 135-288): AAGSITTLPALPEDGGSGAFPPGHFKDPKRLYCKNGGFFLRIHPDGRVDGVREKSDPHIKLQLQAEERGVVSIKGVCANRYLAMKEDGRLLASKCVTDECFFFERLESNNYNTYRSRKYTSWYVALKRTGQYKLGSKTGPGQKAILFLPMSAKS
His-FGF2, LMW FGF2 (residues 135-288, C211S/C229S) (P09038, form named): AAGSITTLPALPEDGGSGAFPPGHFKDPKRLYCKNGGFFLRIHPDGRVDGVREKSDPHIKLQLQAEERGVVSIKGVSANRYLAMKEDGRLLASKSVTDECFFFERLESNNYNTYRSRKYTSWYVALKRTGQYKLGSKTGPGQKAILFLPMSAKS
UniProt Q13838: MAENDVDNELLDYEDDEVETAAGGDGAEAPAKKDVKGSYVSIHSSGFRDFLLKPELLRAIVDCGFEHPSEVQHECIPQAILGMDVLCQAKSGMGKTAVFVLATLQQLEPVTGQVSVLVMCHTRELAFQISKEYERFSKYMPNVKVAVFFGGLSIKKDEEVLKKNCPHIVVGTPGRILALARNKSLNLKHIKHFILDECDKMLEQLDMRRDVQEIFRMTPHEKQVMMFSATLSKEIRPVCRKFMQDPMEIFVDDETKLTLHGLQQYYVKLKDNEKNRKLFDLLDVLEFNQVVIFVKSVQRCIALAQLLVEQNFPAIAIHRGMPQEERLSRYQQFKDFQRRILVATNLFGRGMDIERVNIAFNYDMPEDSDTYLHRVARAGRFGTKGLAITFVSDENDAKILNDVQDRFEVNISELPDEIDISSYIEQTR

Experiments:
[1] = target: FLAG-tagged API5 4Mut (D145A/E184A/D185A/E190A) (human) (UniProt Q9BZZ5); assay: co-IP; API5 knockout (gAPI5) HeLa cells reconstituted with API5 WT or 4Mut; RNase A used during immunoprecipitation
[2] = target: FLAG-tagged API5 WT (human) (UniProt Q9BZZ5); assay: as above
[3] = target: GST-API5, wild type (human) (UniProt Q9BZZ5); assay: pull-down; GST pulldown with purified recombinant GST-API5 and His-FGF2; Coomassie blue staining; both purified
[4] = target: T1, API5 in cells (immunoprecipitation of Supplementary Figure S9) (human) (UniProt Q9BZZ5); assay: co-IP; immunoprecipitation from cells with lentivirus-mediated expression of the API5-segment 2 peptide (Supplementary Figure S9)
T1 sequence: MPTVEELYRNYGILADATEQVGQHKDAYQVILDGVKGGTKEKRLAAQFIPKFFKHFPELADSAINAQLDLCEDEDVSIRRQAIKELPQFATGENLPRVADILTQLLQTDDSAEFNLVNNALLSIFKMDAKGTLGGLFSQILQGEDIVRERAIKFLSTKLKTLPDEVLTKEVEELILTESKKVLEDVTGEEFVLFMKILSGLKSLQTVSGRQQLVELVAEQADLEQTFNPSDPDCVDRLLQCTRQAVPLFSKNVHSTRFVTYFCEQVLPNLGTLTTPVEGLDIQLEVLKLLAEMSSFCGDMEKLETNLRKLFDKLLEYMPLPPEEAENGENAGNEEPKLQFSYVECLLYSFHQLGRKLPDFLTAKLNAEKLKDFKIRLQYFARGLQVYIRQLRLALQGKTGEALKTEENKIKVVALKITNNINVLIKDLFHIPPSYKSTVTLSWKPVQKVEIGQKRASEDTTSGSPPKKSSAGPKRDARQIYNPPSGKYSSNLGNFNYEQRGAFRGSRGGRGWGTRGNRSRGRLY

[5] = target: FLAG-tagged API5 4Mut (D145A/E184A/D185A/E190A) (human) (UniProt Q9BZZ5); assay: co-IP; FLAG-API5 (WT or 4Mut) and HA-tagged LMW FGF2 WT transiently co-expressed in API5 knockout (gAPI5) HeLa cells; anti-Flag antibody
[6] = target: FLAG-tagged API5 WT (human) (UniProt Q9BZZ5); assay: as above

Substance | binding [1] | binding [2] | also measured
eIF4E (from UniProt P06730 1-217) | no binding | binds | –
His-FGF2, LMW FGF2 (residues 135-288, C211S/C229S) (from UniProt P09038 135-288) | – | – | binding [3]: binds
FGF2 in cells (immunoprecipitation of Supplementary Figure S9) (from UniProt P09038) | – | – | binding [4]: binds
HA-tagged LMW FGF2 WT (from UniProt P09038 135-288) | – | – | binding [5]: binds; binding [6]: binds
UAP56 (DDX39B), endogenous (from UniProt Q13838 1-428) | binds | binds | –
